According to the supplement of paper PMC5770031:
Where “and” joins values, the source holds several entries; their conditions need not be identical. Equal values may be shown once. The list shows a part of the results. Single values are uncertain here, since repeats match poorly.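 Flies heterozygous for the ATM8 allele over a balancer chromosome carrying normal ATM were mated with each other on treated food. Parents laid eggs for 5–6 days and the young then developed for about 12 days, so both parents and larvae ate the compound. The read-out is the share of all emerged adults that carry two ATM8 copies, compared with 2% DMSO control vials. The paper called compounds neutral at 10–20% such offspring, harmful below 10%, and helpful above 20%.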

System: Drosophila melanogaster ATM8 (temperature-sensitive ATM allele)
Experiment: fraction of eclosed F1 progeny that are homozygous ATM8 (rescue of developmental lethality); higher = more rescue of ATM8 developmental lethality; extreme values may be limits of the assay
Conditions: compound concentration applied to food 0.2 mM; 21 °C

Structure (SMILES) | fraction of eclosed F1 progeny that are homozygous ATM8
CCN(CC)CCNC(C(=O)OCCC(C)C)c1ccccc1 (configuration not stated) | 0.208
C[C@@H]1C[C@H]2[C@@H]3CCC4=CC(=O)C=C[C@]4(C)[C@@]3(F)[C@@H](O)C[C@]2(C)[C@@]1(O)C(=O)COP(=O)(O)O | 0.0233
C=CC1=C(C(=O)O)N2C(=O)[C@@H](NC(=O)/C(=N\O)c3csc(N)n3)[C@H]2SC1 | 0.241
C=C1CC[C@@H]2[C@](C)(CO)[C@H](O)CC[C@@]2(C)[C@@H]1C/C=C1/C(=O)OC[C@H]1O | 0.171
Cc1cn([C@H]2C=C[C@@H](CO)O2)c(=O)[nH]c1=O | 0.0526
Oc1ccc([C@H]2Oc3cc(O)cc(O)c3C[C@H]2O)cc1 | 0.196
O=C(O[C@@H]1Cc2c(O)cc(O)cc2O[C@@H]1c1cc(O)c(=O)c2c(O)c(O)cc([C@H]3Oc4cc(O)cc(O)c4C[C@H]3OC(=O)c3cc(O)c(O)c(O)c3)c2c1)c1cc(O)c(O)c(O)c1 | 0.0857
COc1cccc2c1C(=O)c1c(O)c3c(c(O)c1C2=O)C[C@@](O)(C(C)=O)C[C@@H]3O[C@H]1C[C@H](N)[C@H](O)[C@H](C)O1 | 0.0769
O=c1oc2c(O)c(O)cc3c(=O)oc4c(O)c(O)cc1c4c23 | 0.304
COc1ccc(-c2coc3cc(OC(C)=O)cc(OC(C)=O)c3c2=O)cc1 | 0.033
NC(=O)NCCC[C@H](N)C(=O)O | 0.246
C[C@]12CC[C@H]3[C@@H](CC[C@]4(O)C[C@@H](O)CC[C@]34C=O)[C@@]1(O)CC[C@@H]2C1=CC(=O)OC1 | 0.241
CC(=O)CC(c1ccccc1)c1c(O)c2ccccc2oc1=O (configuration not stated) | 0.179
NS(=O)(=O)c1cc2c(cc1Cl)NC(C1CC3C=CC1C3)NS2(=O)=O (configuration not stated) | 0.069
CCN(CC)CC(=O)Nc1c(C)cccc1C | 0.178
c1ccc2c(CC3=NCCN3)cccc2c1 | 0.0938
COc1cc(OC)c2c(c1Cl)O[C@@]1(C(=O)CC(=O)C[C@H]1C)C2=O | 0.393
NC(N)=NOCC[C@H](N)C(=O)O | 0.0638
CN1C(=O)CC[C@H]1c1cccnc1 | 0
CC[C@@H]1C(=O)OC[C@@H]1Cc1cncn1C | 0.133
CS(=O)(=O)OCCCCOS(C)(=O)=O | 0.0833
Cc1c(NC(=O)c2cccnc2)c(=O)n(-c2ccccc2)n1C | 0.171

Structure (SMILES) | fraction of eclosed F1 progeny that are homozygous ATM8
O=C(/C=C/c1ccc(O)cc1)c1ccc(O)cc1O | 0.0833
COc1ccc(-c2coc3c(O)c(O)c(OC)cc3c2=O)cc1 | 0.178
OCc1c[nH]c2ccccc12 | 0.151
CCC1(C)OC(=O)N(C)C1=O (configuration not stated) | 0
O=C(OOC(=O)c1ccccc1)c1ccccc1 | 0.0833
N[C@@H](Cc1c[nH]c2ccccc12)C(=O)O | 0.103 and 0.1
CC(O)Cn1cnc2c1c(=O)n(C)c(=O)n2C (configuration not stated) | 0.0811
NS(=O)(=O)c1cc2c(cc1C(F)(F)F)NCNS2(=O)=O | 0.238
NC(=O)CCCCC1CCSS1 (configuration not stated) | 0.192
CC(C)(CO)[C@@H](O)C(=O)NCCC(=O)NCCSSCCNC(=O)CCNC(=O)[C@H](O)C(C)(C)CO | 0.075
CC(=O)Oc1ccc(Cl)c2cccnc12 | 0.208
CN1CCN(CC/C=C2/c3ccccc3Sc3ccc(S(=O)(=O)N(C)C)cc32)CC1 | 0.0789
O=P1(NCCCl)OCCCN1CCCl (configuration not stated) | 0
N#CN=C(N)N | 0.196
CN1CCC(=C2c3ccccc3C=Cc3ccccc32)CC1 | 0.175
CCCc1cc(C(N)=S)ccn1 | 0.122
CC(=O)S[C@@H]1CC2=CC(=O)CC[C@]2(C)[C@H]2CC[C@@]3(C)[C@@H](CC[C@@]34CCC(=O)O4)[C@H]12 | 0.265
CC(Cc1cccc(C(F)(F)F)c1)NCCOC(=O)c1ccccc1 (configuration not stated) | 0.233
C=C(C)[C@@H]1[C@H]2OC(=O)[C@@H]1[C@]1(O)C[C@H]3O[C@]34C(=O)O[C@H]2[C@]14C | 0.216
CC(=O)[C@H]1CC[C@H]2[C@@H]3CCC4=CC(=O)CC[C@]4(C)[C@H]3C(OC(=O)CCC(=O)O)C[C@]12C (stereo partly drawn) [11alpha-HYDROXYPROGESTERONE HEMISUCCINATE] | 0.229
Oc1ccc(Cl)cc1 | 0.256
CC1=CCC[C@@H]2C1(C)CCC(C)[C@@]2(C)CC/C(C)=C/C[n+]1cn(C)c2c(N)ncnc21 (some centres not stated) | 0.0256

Shown field by field: four of the compounds above.
Cc1cn([C@H]2C=C[C@@H](CO)O2)c(=O)[nH]c1=O
  fraction of eclosed F1 progeny that are homozygous ATM8: 0.0526
Oc1ccc([C@H]2Oc3cc(O)cc(O)c3C[C@H]2O)cc1
  fraction of eclosed F1 progeny that are homozygous ATM8: 0.196
O=C(O[C@@H]1Cc2c(O)cc(O)cc2O[C@@H]1c1cc(O)c(=O)c2c(O)c(O)cc([C@H]3Oc4cc(O)cc(O)c4C[C@H]3OC(=O)c3cc(O)c(O)c(O)c3)c2c1)c1cc(O)c(O)c(O)c1
  fraction of eclosed F1 progeny that are homozygous ATM8: 0.0857
COc1cccc2c1C(=O)c1c(O)c3c(c(O)c1C2=O)C[C@@](O)(C(C)=O)C[C@@H]3O[C@H]1C[C@H](N)[C@H](O)[C@H](C)O1
  fraction of eclosed F1 progeny that are homozygous ATM8: 0.0769

(listing goes on)

Structure (SMILES) | fraction of eclosed F1 progeny that are homozygous ATM8
C=C1CC[C@H](O)C/C1=C/C=C1\CCC[C@]2(C)[C@@H]([C@H](C)CCCC(C)C)CC[C@@H]12 | 0.118
Cc1nccnc1N1CCCCC1 | 0.193
CC(C)c1c(CN(C)C(C)Cc2ccccc2)n(C)n(-c2ccccc2)c1=O (configuration not stated) | 0.0714
N#CCCN | 0.109
NNCCc1ccccc1 | 0.174
CCCCN(CCCC)CCCOC(=O)c1ccc(N)cc1 | 0.06
COC(=O)Nc1nc2cc(C(=O)c3cccs3)ccc2[nH]1 | 0.129
Cc1ccc(C(=O)c2ccc(CC(=O)O)n2C)cc1 | 0.226
O=C(O)CN1C(=O)c2cccc3cccc(c23)C1=O | 0.212
FC(F)(F)C(Cl)Br (configuration not stated) | 0.0488
CC(=O)OCC(=O)[C@@]1(O)CC[C@H]2[C@@H]3CCC4=CC(=O)C=C[C@]4(C)[C@@]3(Cl)[C@@H](Cl)C[C@@]21C | 0.118
O=C(O)CCCCCCCC(=O)O | 0.129
CC(=O)O[C@@H]1C[C@H]2C(C)(C)C(=O)CC[C@]2(C)[C@H]2CC[C@@]3(C)[C@H](c4ccoc4)OC(=O)[C@H]4O[C@]43[C@@]21C | 0.0789
CC(=O)OCC(=O)[C@@]1(O)CC[C@H]2[C@@H]3CCC4=CC(=O)CC[C@]4(C)[C@@]3(F)[C@@H](O)C[C@@]21C | 0.123
CC12CCC3C(CC3(C)C)C(C)(CCC1=O)O2 (configuration not stated) | 0.168
C=CC(N)CCC(=O)O (configuration not stated) | 0.0698
CCCCCCCCCCCCCCCC(=O)OC/C=C(C)/C=C/C=C(C)/C=C/C1=C(C)CCCC1(C)C | 0.0606
COS(C)(=O)=O | 0.238
NS(=O)(=O)c1cc(C2(O)NC(=O)c3ccccc32)ccc1Cl (configuration not stated) | 0
CCN[C@H]1CN(CCCOC)S(=O)(=O)c2sc(S(N)(=O)=O)cc21 | 0
CC(=O)OCC(=O)[C@@]1(O)CC[C@H]2[C@@H]3CCC4=CC(=O)CC[C@]4(C)[C@H]3[C@@H](O)C[C@@]21C | 0.108
CC(C)c1c(C(=O)Nc2ccccc2)c(-c2ccccc2)c(-c2ccc(F)cc2)n1CC[C@@H](O)C[C@@H](O)CC(=O)O | 0.0612

Structure (SMILES) | fraction of eclosed F1 progeny that are homozygous ATM8
O=c1[nH]c(=O)n(Cl)c(=O)n1Cl | 0.189
OC(Cn1cncn1)(Cn1cncn1)c1ccc(F)cc1F | 0.0323
NCCc1c[nH]cn1 | 0.265
CC(=O)OC1CCC23C(=O)OC45CCC(C6=CC(=O)OC6)C4(C)CCC2C5CCC3(O)C1 (configuration not stated) | 0.27
CC(C)CCC[C@@H](C)[C@H]1CC[C@H]2[C@@H]3CC=C4C[C@@H](OC(=O)CCC(=O)O)CC[C@]4(C)[C@H]3CC[C@]12C | 0.211
CC[N+](C)(C)c1cccc(O)c1 | 0.179
CC(=O)[C@@]1(O)CC[C@H]2[C@@H]3C=C(Cl)C4=CC(=O)[C@@H]5C[C@@H]5[C@]4(C)[C@H]3CC[C@@]21C | 0.25
Nc1[nH]cnc2ncnc1-2 | 0.0526
COc1c(-c2coc3cc4c(cc3c2=O)CC(O)C(C)(C)O4)ccc2c1C=CC(C)(C)O2 (configuration not stated) | 0.0952
C[C@@H](O)CN(CCN(C[C@@H](C)O)C[C@@H](C)O)C[C@@H](C)O | 0
NC(=O)CN1CCCC1=O | 0.146
COc1cc(C(=O)OCCCN2CCCN(CCCOC(=O)c3cc(OC)c(OC)c(OC)c3)CC2)cc(OC)c1OC | 0.186
CC[N+](C)(CC)CCOC(=O)C(O)(c1ccccc1)C1CCCCC1 (configuration not stated) | 0.125
O=C1c2c(O)cccc2Cc2cccc(O)c21 | 0.025
O=S(=O)(O)c1cc(N=C=S)ccc1/C=C/c1ccc(N=C=S)cc1S(=O)(=O)O | 0.3
CCCCCCCCCCCCCCCC(=O)OCC(O)CO (configuration not stated) | 0.135
Cc1[nH]ccc2c1[nH]c1cc(=O)ccc12 | 0.175
CC(=O)Oc1ccccc1C(=O)Nc1ncc([N+](=O)[O-])s1 | 0.104
CC1(C)OC(=O)C(OCC2CC2)=C1c1ccc(S(C)(=O)=O)cc1 | 0.293
CCCCC(O)c1ccccc1 (configuration not stated) | 0.203
O=c1cc(-c2ccccc2)oc2c(O)c(O)ccc12 | 0.143
CCCCOCCOCCOCc1cc2c(cc1CCC)OCO2 | 0.211

Structure (SMILES) | fraction of eclosed F1 progeny that are homozygous ATM8
CCN(CC)CCOC(=O)C1(C2CCCCC2)CCCCC1 | 0.0263
COc1ccc([C@@H]2CC(=O)c3c(O)cc(O)cc3O2)cc1O | 0.109
CC(=O)ON(CCN(OC(C)=O)OC(C)=O)OC(C)=O | 0.093
C[N+]1(C)CCC(OC(=O)C(O)(c2ccccc2)C2CCCC2)C1 (configuration not stated) | 0.04
CCCCCCCCCCCCCCCCCCOCC(O)CO (configuration not stated) | 0
COC1=C[C@@H](C)[C@@H]2C[C@H]3OC(=O)C[C@H]4C(C)=C(OC)C(=O)[C@H]([C@@]2(C)C1=O)[C@@]34C | 0.34
N#Cc1ccc(C(c2ccc(C#N)cc2)n2cncn2)cc1 | 0.0196
Clc1ccc(CCC(Cn2ccnc2)Sc2c(Cl)cccc2Cl)cc1 (configuration not stated) | 0.444
CCCCCc1c2c(cc(O)c1C(=O)O)OC(=O)c1c(cc(OC)cc1C(=O)CCCC)O2 | 0.345
CC(C)CC(N)=O | 0.224
N=C(NCCCCCCNC(=N)NC(=N)Nc1ccc(Cl)cc1)NC(=N)Nc1ccc(Cl)cc1 | 0
NCc1ccccc1CC(=O)N[C@@H]1C(=O)N2C(C(=O)O)=C(CSc3nnnn3CC(=O)O)CS[C@H]12 | 0.171
COc1c2occc2cc2ccc(=O)oc12 | 0.111
Oc1ccc2ccccc2c1 [beta-NAPHTHOL] | 0.0816
COC(=O)c1cc(O)c(=O)c2c(O)c(O)ccc2c1 | 0.0256
O=Cc1ccc(O)c(O)c1O | 0.069
CC(=O)Oc1ccc2c(c1OC(C)=O)OCC1(O)Cc3c(cc(OC(C)=O)c(OC(C)=O)c3OC(C)=O)C21 (configuration not stated) | 0.195
O=C(O)Cc1ccc(-c2ccccc2)cc1 | 0.296
O=C(NC[C@H]1CN(c2ccc(N3CCOCC3=O)cc2)C(=O)O1)c1ccc(Cl)s1 | 0.149
